Data on one compound can be found in publication PMC9646721, “Alkaloid binding to opium poppy major latex proteins triggers structural modification and functional aggregation” (Nature Communications, 2022).

Chains of the proteins cited; added tags and fusions are not shown. Lines headed by an entry give the natural chain unless they say otherwise; changes in a name come on top.
UniProt A0A2U9GGW3: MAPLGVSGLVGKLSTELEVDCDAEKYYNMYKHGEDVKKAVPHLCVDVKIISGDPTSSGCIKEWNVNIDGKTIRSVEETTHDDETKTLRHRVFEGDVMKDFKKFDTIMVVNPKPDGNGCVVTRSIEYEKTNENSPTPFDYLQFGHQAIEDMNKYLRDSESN
UniProt P0DYP9, entry or part of it: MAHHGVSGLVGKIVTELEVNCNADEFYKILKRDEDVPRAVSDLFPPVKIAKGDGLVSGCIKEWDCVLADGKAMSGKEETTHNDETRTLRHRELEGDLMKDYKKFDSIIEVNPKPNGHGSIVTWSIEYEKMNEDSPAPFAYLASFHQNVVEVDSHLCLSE

By IC50 is commonly meant the point on the concentration scale where inhibition reaches its midpoint. Read a low IC50 as inhibition by little substance. Usually Kd stands for the free concentration of one partner at which half of the binding sites on the other are occupied at equilibrium, for simple one-to-one binding. The low end stands for higher affinity, the high end for lower affinity.

In one assay the target is THS2 (Papaver somniferum, UniProt A0A2U9GGW3). Briefly: ANS displacement assay. The following applies: 10 µM protein and 10 µM ANS, CBS pH 5.5.
For a further assay, the target named is T1, MLP15 (Papaver somniferum, UniProt P19825).
T1 sequence (P19825 1-159): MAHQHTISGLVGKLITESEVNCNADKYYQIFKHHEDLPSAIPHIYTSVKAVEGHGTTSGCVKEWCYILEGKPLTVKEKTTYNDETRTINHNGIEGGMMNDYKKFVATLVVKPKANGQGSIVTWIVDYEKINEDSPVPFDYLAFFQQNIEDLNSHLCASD
Briefly: ANS displacement assay.

Assay [1] has as its target T2, NISO (Papaver somniferum, UniProt P0DYP9). Briefly: ANS displacement assay.
For assay [2], the target named is T2, NISO. Kind of assay: Isothermal titration calorimetry. Type of assay: binding. Further details: made in house; host or cells: E. coli ArcticExpress (DE3). The following applies: ITC, PBS pH 7.4, 25 °C, single-site model. The procedure:
ITC experiments were conducted using a Microcal VP instrument (Malvern Pananalytical, Malvern, UK). […] Eluates were twice dialysed to equilibrium (i.e., 10–12 h at 4 °C) against a 1000-fold (2–4 L) volume of PBS, pH 7.4 (25 mM sodium phosphate, 50 mM NaCl) or CBS, pH 5.5, resulting in a theoretical million-fold dilution of undesired small molecules (e.g., <0.2 µM imidazole). Dialysis was carried out in boiled Spectra/Por 1 6–8 kDa MWCO 0.32 ml/cm (Spectrum Labs, USA) tubing thoroughly washed with either buffer before use. The second 1000-fold volume of dialysis buffer was filtered and degassed using a reusable bottle-top filtration apparatus (Nalgene, USA) with disposable […] cellulose filters (VWR, Canada) prior to storage at 4 °C. […] Any precipitate was separated from the remaining soluble protein fraction which was quantified by absorption at A280nm and diluted with filtered dialysis buffer immediately before use.
Thermograms were recorded at 25 °C, with a reference power of 10 (dpu/sec) and monitoring of 30 injections of 9 µl BIA ligand solutions into a sample cell containing 1.4 ml of an MLP/PR10 protein solution, with 300 seconds between injections. […] After subtraction, binding isotherms were analyzed in MicroCal Origin 7 (MicroCal, USA) by fitting a single-site binding model using non-linear least squares regression analysis repeated until convergence. […]
(In general: In ITC the heat of successive injections is recorded.)

For `CN1CC[C@]23c4c5ccc(O)c4O[C@H]2[C@@H](O)C=C[C@H]3[C@H]1C5` [Morphine, morphine], on THS2, the IC50 is above 1000 µM. The values for the dissociation constant (Kd) at MLP15, on NISO [1] and on NISO [2] were 1060 µM, 44 µM and 5.46 ± 0.22 µM, respectively.
